Laboratory results: PMC5700978
Results are given in words; binding and its absence hold for the method and conditions named. Binding seen in cells or lysates may run through a third protein. Some entries that bind do so weakly or less than the wild type.

Amino acid sequences for entries named in this document (tags omitted).
UniProt Q60823: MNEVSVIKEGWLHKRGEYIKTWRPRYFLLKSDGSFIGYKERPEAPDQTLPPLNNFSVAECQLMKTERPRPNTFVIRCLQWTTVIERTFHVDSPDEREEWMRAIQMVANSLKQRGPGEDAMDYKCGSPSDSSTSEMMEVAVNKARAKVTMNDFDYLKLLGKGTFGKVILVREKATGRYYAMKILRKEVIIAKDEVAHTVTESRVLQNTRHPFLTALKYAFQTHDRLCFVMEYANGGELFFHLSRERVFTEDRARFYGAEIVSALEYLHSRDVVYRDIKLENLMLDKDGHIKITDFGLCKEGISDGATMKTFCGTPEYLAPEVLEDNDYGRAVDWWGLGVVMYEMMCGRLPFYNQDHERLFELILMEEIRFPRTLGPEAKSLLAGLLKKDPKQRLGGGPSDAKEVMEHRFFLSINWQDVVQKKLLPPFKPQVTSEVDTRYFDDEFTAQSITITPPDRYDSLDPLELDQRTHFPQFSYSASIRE
UniProt Q8CHE4: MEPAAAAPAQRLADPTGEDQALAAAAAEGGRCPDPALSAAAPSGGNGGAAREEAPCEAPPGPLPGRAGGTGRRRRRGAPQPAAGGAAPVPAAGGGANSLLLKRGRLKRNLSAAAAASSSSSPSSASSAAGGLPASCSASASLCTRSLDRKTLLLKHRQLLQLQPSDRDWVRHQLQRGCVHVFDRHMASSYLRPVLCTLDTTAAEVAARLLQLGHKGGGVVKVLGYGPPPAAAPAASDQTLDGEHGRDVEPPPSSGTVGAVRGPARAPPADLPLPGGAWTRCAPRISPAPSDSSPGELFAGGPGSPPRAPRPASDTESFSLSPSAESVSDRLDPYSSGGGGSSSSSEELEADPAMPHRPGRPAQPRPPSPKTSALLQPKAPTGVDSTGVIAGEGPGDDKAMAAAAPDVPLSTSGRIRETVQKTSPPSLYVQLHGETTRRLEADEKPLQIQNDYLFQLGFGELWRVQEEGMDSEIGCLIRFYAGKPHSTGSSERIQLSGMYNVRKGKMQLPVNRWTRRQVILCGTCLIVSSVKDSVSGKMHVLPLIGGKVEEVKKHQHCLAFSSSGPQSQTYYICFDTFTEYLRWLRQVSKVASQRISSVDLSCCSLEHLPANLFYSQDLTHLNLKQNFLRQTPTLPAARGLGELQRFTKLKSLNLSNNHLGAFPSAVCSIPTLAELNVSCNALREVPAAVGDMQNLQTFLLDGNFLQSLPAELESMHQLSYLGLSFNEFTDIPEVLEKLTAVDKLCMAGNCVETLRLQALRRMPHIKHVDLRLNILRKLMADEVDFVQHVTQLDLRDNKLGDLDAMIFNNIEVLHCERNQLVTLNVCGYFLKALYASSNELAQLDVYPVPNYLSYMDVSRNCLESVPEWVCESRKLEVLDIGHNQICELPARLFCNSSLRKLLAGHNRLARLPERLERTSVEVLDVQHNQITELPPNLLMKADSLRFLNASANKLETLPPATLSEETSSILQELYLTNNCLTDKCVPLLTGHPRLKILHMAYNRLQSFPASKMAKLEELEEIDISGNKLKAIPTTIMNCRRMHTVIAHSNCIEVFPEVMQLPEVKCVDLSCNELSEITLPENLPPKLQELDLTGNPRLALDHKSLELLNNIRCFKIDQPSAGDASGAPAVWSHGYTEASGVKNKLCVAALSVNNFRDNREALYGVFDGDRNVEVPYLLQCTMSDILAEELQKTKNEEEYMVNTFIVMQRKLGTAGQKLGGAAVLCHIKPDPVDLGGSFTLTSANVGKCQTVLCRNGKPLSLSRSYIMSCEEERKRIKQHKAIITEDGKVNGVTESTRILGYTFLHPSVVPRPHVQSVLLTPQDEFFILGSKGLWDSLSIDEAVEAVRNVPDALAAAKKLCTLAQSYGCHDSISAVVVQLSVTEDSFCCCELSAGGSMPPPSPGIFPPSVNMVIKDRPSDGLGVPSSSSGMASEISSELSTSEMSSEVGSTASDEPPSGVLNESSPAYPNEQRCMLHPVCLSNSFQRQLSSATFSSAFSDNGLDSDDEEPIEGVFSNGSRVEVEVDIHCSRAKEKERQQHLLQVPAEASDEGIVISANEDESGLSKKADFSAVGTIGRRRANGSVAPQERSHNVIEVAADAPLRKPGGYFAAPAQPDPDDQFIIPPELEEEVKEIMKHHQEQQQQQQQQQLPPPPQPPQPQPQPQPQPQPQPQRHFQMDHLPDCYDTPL

B1: AS160 (AKT substrate of 160 kDa) (protein, UniProt Q8BYJ6 1-1307)
chain: MESPSCIQDEPFPHPLEPEPSAPAQPGATKPGDKRFRLWYVGGSCLDRRTTLPMLPWLMAEIRRRSQKPDAGGCGAPAAREVILVLSAPFLRCVPAPGAGVGGGAGSGAVQPNTGVFIFEHKAQHISRFIHNSHDLTYFAYLIKAQPDDPESQMACHVFRATDPNQVPDVISSIRQLSKAAMKEDSKPSKDNEDAFYNSQKFEVLYCGRVIVTHKKAPSSLIDDCKDKFSLHEQQRLKLQGERGGDPGDEMGVLEVESPVSPDDSLPEKADGTVNSPRALPSLASLPALASQPALASSRVCFPERILEDCGFDEQQEFRSRCSSVTGVMQKKVHENNQKTQPRRRHASAPSHVQPSDSEKNRTMLFQVGRFEINLISPDTKSVVLEKNFKDISSCSQGIKHVDHFGFICRESPEPGLSQYICYVFQCANESLVDEVMLTLKQAFSTAAALQSAKTQIKLCETCPMHSLHKLCERIEGLYPPRAKLVIQRHLSSLTDNEQADIFERVQKMKPISDQEENELVILHLRQLCEAKQRTHVHIGEGPAIISNSTIPENVTSGGRFKLDVLKNKAKRSLTSSLENIFSRGANRMRGRLGSMDSFERANSLASEKDFSPGDSPPGTPPASPLSSAWHAFPEEDSDSPQFRRRAHTFSHPPSSSRRKLNLQDGKAHGLRSPLLRQSSSEQCSIVPSARRMYKESNSSCSLPSLHTSFSAPSFTAPSFLKSFYQNSGRLSPQYENEIRQDTASESSDGEGRKRTSSTCSNESLNAGGTPVTPRRVSWRQRIFLRVASPVNKSPSAMQQQKDGLDRTELLPLSPLSPTMEEEPLIIFLSGDEDTEKVEEKKKSKELKSLWKKAIHQQILLLRMEKENQKLEEARRDELQSRKVKLDYEEVGTCQKEILIAWDKKLLNCRTKIRCDMEDIHTSLKEGVPKSRRGEIWQFLALQYRLRHRLPNKHQPPDTSYKELLKQLTAQQHAILVDLGRTFPTHPYFSVQLGAGQLSLFNLLKAYSLLDKEVGYCQGISFVAGVLLLHMSEEQAFEMLKFLMYDLGFRKQYRPDMMSLQIQMYQLSRLLHDYHRELYNHLEENEISPSLYAAPWFLTLFASQFPLGFVARVFDIIFLQGTEVIFKVALSLLSSQEALIMECENFENIVEFLKSTLPDMNTTEMEKIITQVFEMDISKQLHAYEVEYHVLQDELLESSYACEDNESLEKLERANNQLKRQNMDLLEKLQVAHAKIQALESNLETLLTRETKMKALIRTLEQDKMAYQKTVEQIRKLLPADALANCELLLKDLTHPTNDKAKAGNKP
B2: phosphorylated AS160 (pAS160) (protein, UniProt Q8BYJ6 1-1307)
chain: B1 chain
modifications: phosphorylated (pAS160); the site detected in this experiment is not stated

Molecular target: serine/threonine protein kinase AKT2 (mouse (endogenous in skeletal muscle and eWAT)) (UniProt Q60823)
Assay: co-IP; endogenous proteins; 500 ug lysate of soleus and EDL muscle of HFD-fed mice treated 30 days with vehicle or SAFit2; IP with anti-AKT2 or anti-FKBP51 overnight at 4 °C, protein G dynabeads, washed with ice-cold PBS; Western blot for FKBP51, (p)AKT2, (p)AS160, PHLPP1

binding, binds:
PHLPP1 (from UniProt Q8CHE4 1-1687) (enzyme)
B1
B2
